Results as given in PubChem BioAssay AID2685 (National Center for Advancing Translational Sciences (NCATS), 2010).
Some of the results follow. Shown are side measurements of this screen, not its main read-out; they come without a call. Compounds called inactive in the main read-out are mostly missing here. Potencies come from curve fits of mixed quality, noted in brackets.

Test: qHTS Assay for Lipid Storage Modulators in Drosophila S3 Cells;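 for cell number change: cells counted by Cell Tracker Red CMTPX staining in the red channel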
Conditions: BODIPY lipid droplet fluorescence, 18-24 h; for cell number change: measured here: cell count max response, cells fed with added oleic acid
Procedure, shortened: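 Drosophila S3 cells loaded with oleic acid (400 uM, as added) and compounds at several concentrations; lipid droplets imaged by 488-nm laser-scanning cytometry, 500–530 nm intensity and object ratio to cell channel. Percent activity normalized to 20 uM Triacsin C.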

[1] = measured here: cell number channel AC50, cells fed with added oleic acid
[2] = measured here: lipid fluorescence (Fed channel) AC50, cells fed with added oleic acid

With `CCOC(=O)C1=C(C)N(c2ccccc2)C(=O)C1CC(=O)O` (configuration not stated) the cell number change was 39.1%, the AC50 [1] was 29.1 µM [rising, single point] and the AC50 [2] was 4.61 µM [falling, full curve, poor fit].

In the case of `Fc1ccccc1COc1ccccc1/C=N/Nc1nc(N2CCCC2)nc(N2CCCC2)n1`, the cell number change was 10.8% and the AC50 [2] was 4.61 µM [falling, single point].

With `CCCNC(=O)C1(S(=O)(=O)c2ccccc2)CC=CC1` the cell number change was 6.59% and the AC50 [2] was 29.1 µM [rising, single point].

For `COc1ccc(CNc2ccc(C)c(C)c2)c(OC)c1OC`, the cell number change was 0.221%, the AC50 [1] was 6.51 µM [rising, single point] and the AC50 [2] was 6.51 µM [rising, partial curve, poor fit].

With `N#CC1CN(Cc2ccccc2)CN(Cc2ccccc2)C1` the cell number change was 15.2%, the AC50 [1] was 2.59 µM [falling, single point] and the AC50 [2] was 5.17 µM [falling, partial curve, poor fit].

With `N#CCCN(Cc1cccnc1)C(=S)NC(=O)c1ccc(S(=O)(=O)N2CCCC2)cc1` the cell number change was 49.3% and the AC50 [1] was 23.1 µM [rising, single point].

In the case of `Cc1cnc(Nc2nc3ccccc3o2)nc1C(=O)Nc1cccc(C(F)(F)F)c1`, the cell number change was -34.8%, the AC50 [1] was 29.1 µM [falling, single point] and the AC50 [2] was 29.1 µM [falling, partial curve, poor fit].

For `COc1cc(OC)c(OC)cc1CNCCNC(=O)c1nonc1N`, the cell number change was 0.13% and the AC50 [2] was 3.26 µM [falling, full curve, poor fit].

In the case of `COc1cccc(CNC(=O)Cn2ccc3cc(S(=O)(=O)N4CCCC4)ccc32)c1`, the cell number change was -4.58% and the AC50 [2] was 23.1 µM [rising, single point].

With `CCOc1ccc(/C(O)=C2/C(=O)C(=O)N(CCCN3CCOCC3)C2c2ccc(F)cc2)cc1C` (configuration not stated) the AC50 [1] was 0.58 µM [falling, single point].

In the case of `Cc1cc(NC(=O)CCCn2nc(C)c([N+](=O)[O-])c2C)no1`, the cell number change was -9.63% and the AC50 [1] was 3.66 µM [falling, single point].

`COc1ccc(NC(=O)C/C(C)=N/NC(=O)COc2ccc(OC)cc2)cc1` showed a cell number change of 26.9%.

For `Nn1c(-c2ccco2)n[nH]c1=S`, the cell number change was -10.4% and the AC50 [2] was 0.103 µM [falling, full curve, poor fit].

In the case of `CCOC(=O)c1cc(-c2csc(-c3ccc(C(F)(F)F)cc3)n2)on1`, the cell number change was 35.1% and the AC50 [1] was 29.1 µM [rising, single point].

In the case of `Cc1nc(CN2CCCCC2)cc(=O)[nH]1`, the cell number change was -6.43% and the AC50 [2] was 0.00517 µM [falling, full curve, poor fit].

For `COc1cc(OC)c(NS(=O)(=O)c2cc(C(=O)OC(C)C(=O)NC3CC3)c(Cl)cc2Cl)cc1Cl` (configuration not stated), the AC50 [2] was 0.206 µM [falling, full curve, poor fit].

With `CCOC(=O)c1c(C)[nH]c(C)c1C(=O)COc1ccc(NC(=O)c2ccco2)cc1` the cell number change was 136%, the AC50 [1] was 1.84 µM [rising, full curve] and the AC50 [2] was 1.64 µM [rising, partial curve].

In the case of `Cc1ccc(N(CC(=O)NC2CCCC2)C(=O)CCCC(=O)Nc2ccccn2)cc1C`, the AC50 [1] was 6.51 µM [rising, single point] and the AC50 [2] was 6.51 µM [rising, single point].

For `CC(C)n1c(NCc2ccccc2O)nc2ccccc21`, the cell number change was -11.5% and the AC50 [2] was 23.1 µM [falling, single point].

With `O=C1CSC(c2cccc(F)c2)N1c1ccc(O)cc1` (configuration not stated) the cell number change was 43.4% and the AC50 [1] was 29.1 µM [rising, single point].

In the case of `COCCNC(=O)CN(C(=O)CCC(=O)Nc1ccccn1)c1ccccc1OC`, the cell number change was 31.1% and the AC50 [1] was 32.6 µM [rising, single point].

With `COc1ccc(OC)c(Nc2nc(N)nc(CSc3nnc(N)s3)n2)c1` the cell number change was 10.4%, the AC50 [1] was 0.411 µM [rising, full curve] and the AC50 [2] was 0.651 µM [rising, full curve].

For `CSc1nc(Oc2ccccc2)c2sccc2n1`, the cell number change was -8.53%, the AC50 [1] was 0.651 µM [falling, full curve, poor fit] and the AC50 [2] was 6.51 µM [falling, single point].

Work on `COc1cc(C(=O)OCC(=O)N(C)C)cc(NC(=O)c2ccco2)c1OC` yielded a cell number change of -4.76%.

With `CC(=O)Oc1ccc2nc(/C=C/c3ccccc3)oc(=O)c2c1` the cell number change was -4.74% and the AC50 [2] was 32.6 µM [rising, single point].

For `O=C(CSc1ncnc2sc3c(c12)CCCC3)c1ccco1`, the cell number change was -18.9% and the AC50 [2] was 0.731 µM [rising, full curve, poor fit].

With `Cc1ccc(-c2nn(-c3ccccc3)cc2/C=N/NC(=O)c2ccncc2)o1` the cell number change was -20% and the AC50 [1] was 0.0058 µM [falling, full curve, poor fit].
